Our source for the binding values is paper doi:10.1101/2024.07.03.601947.

No constants are given. Whether binding was seen depends on the method and setting. Binding seen in cells or lysates may run through a third protein. A yes stands for co-enrichment or nearness to the bait. Other partners may have been found.

The target in the test is Flag-TurboID-Plk1 PBD WT (UniProt P53350). The experiment in a line: proximity labelling.

INCENP (from UniProt Q9NQS7 1-918): the binding result is reported as “binds”.
